Data taken from patent US20220112284A1 (Innovent, published 2022).
These are yes or no findings as the source states them, for the method shown. Some binding calls cover weakened binding; strength is not graded here. Tags and fused reporters may be left off the sequences shown.

The chains behind the UniProt entries cited, without tags or fusion partners. Residues count along the entry.
UniProt Q9NZQ7, residues 19-290: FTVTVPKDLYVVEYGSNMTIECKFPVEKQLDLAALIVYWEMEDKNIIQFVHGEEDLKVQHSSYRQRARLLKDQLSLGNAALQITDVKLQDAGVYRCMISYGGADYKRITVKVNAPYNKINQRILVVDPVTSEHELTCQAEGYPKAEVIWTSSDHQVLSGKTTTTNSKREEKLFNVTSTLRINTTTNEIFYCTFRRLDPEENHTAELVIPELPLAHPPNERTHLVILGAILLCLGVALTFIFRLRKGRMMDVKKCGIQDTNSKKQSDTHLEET

Tests used:
[1] = biological target: human PD-L1 on CHOS cells overexpressing PD-L1 (CHOS-PD-L1) (human) (UniProt Q9NZQ7); experiment: FACS on CHOS-PD-L1 cells
[2] = biological target: human PD-L1 on CHOS cells overexpressing PD-L1 (CHOS-PD-L1) (human) (UniProt Q9NZQ7); experiment: FACS on CHOS-PD-L1 cells, detection with PE-conjugated anti-human Fc antibody

B1: anti-PD-L1 humanized Nb-Fc antibody (Fc fusion)
chain: QVQLQESGGGLVQPGGSLRLSCAASAYTISRNSMGWFRQAPGKGLEGVAAIESDGSTSYSDSVKGRFTISLDNSKNTLYLEMNSLRAEDTAVYYCAAPKVGLGPRTALGHLAFMTLPALNYWGQGTLVTVSS
notes: The VHH is inferred from the words 'parent antibody' / 'parental anti-PD-L1 antibody'; also called anti-humanized Nb-Fc; parental anti-PD-L1 antibody; not shown: the antibody was obtained according to ZL201710657665.3
binding [1]: binds | binding [2]: binds
